Measurements: patent US10568828B2 (CAREGEN CO., LTD., priority 2016, dated 2020)

Test: general procedure: peptide synthesis; chlorotrityl chloride resin (CTL resin, Nova Biochem Cat No. 01-64-0021)
Conditions: whole synthesis

Q: For Arg-Arg-Lys-Ile (RRKI), which crude mass is on record?
A: 0.7 g

Q: What about the crude yield (scale of the general procedure 700 mg resin) of the same substance?
A: 90.0%
